Here are results for eleven test systems from the supplement of paper PMC11264405.

Common to all, as to assay: minimum inhibitory concentration
Compound in one assay: CN[C@H](CC(C)C)C(=O)N[C@H]1C(=O)N[C@@H](CC(N)=O)C(=O)N[C@H]2C(=O)N[C@H]3C(=O)N[C@H](C(=O)N[C@H](C(=O)O)c4cc(O)cc(O)c4-c4cc3ccc4O)[C@H](O)c3ccc(c(Cl)c3)Oc3cc2cc(c3O[C@@H]2O[C@H](CO)[C@@H](O)[C@H](O)[C@H]2O[C@H]2C[C@](C)(N)[C@H](O)[C@H](C)O2)Oc2ccc(cc2Cl)[C@H]1O [vancomycin]
Compound in the next assay: C[C@@H](O)[C@H]1C(=O)N2C(C(=O)O)=C(S[C@@H]3CN[C@H](C(=O)N(C)C)C3)[C@H](C)[C@H]12 [meropenem]
Compound in a further assay: CO[C@H]1/C=C/O[C@@]2(C)Oc3c(C)c(O)c4c(O)c(c(/C=N/N5CCN(C)CC5)c(O)c4c3C2=O)NC(=O)/C(C)=C\C=C\[C@H](C)[C@H](O)[C@@H](C)[C@@H](O)[C@@H](C)[C@H](OC(C)=O)[C@@H]1C [rifampicin]
Compound in the next assay: CCc1c(Cl)c(O)c(Cl)c(O)c1C(=O)O[C@H]1[C@H](O)[C@H](OC)[C@H](OC/C2=C\C=C\C[C@H](O)/C(C)=C/[C@H](CC)[C@@H](O[C@@H]3OC(C)(C)[C@@H](OC(=O)C(C)C)[C@H](O)[C@@H]3O)/C(C)=C/C(C)=C/C[C@@H]([C@@H](C)O)OC2=O)O[C@@H]1C [fidaxomicin]
Compound in a further assay: C[C@@H](O)[C@H]1C(=O)N2C(C(=O)O)=C(SCCNC=N)C[C@H]12 [imipenem]
Compound in another assay: Cc1ncc([N+](=O)[O-])n1CCO [metronidazole]
Compound in the next assay: CCC[C@@H]1C[C@@H](C(=O)N[C@@H]([C@H]2O[C@H](SC)[C@H](O)[C@@H](O)[C@H]2O)[C@H](C)Cl)N(C)C1 [clindamycin]
Compound in a further assay: CC(=O)NC[C@H]1CN(c2ccc(N3CCOCC3)c(F)c2)C(=O)O1 [linezolid]
Compound in the next assay: CN(C)c1cc(NC(=O)CNC(C)(C)C)c(O)c2c1C[C@H]1C[C@H]3[C@H](N(C)C)C(O)=C(C(N)=O)C(=O)[C@@]3(O)C(O)=C1C2=O [tigecycline]

Bounds are passed on as bounds.

Regarding “Clostridioides difficile PCR ribotype 695 isolate #405 (European region: West, country: Netherlands, isolate source: Animal, ribotype: 695)”, the minimum inhibitory concentration was 0.5 µg/mL with vancomycin; 2 µg/mL in the assay with meropenem; < 0.001 µg/mL in the assay with rifampicin; 0.015 µg/mL with fidaxomicin; 2 µg/mL with imipenem; < 0.125 µg/mL with metronidazole. In addition, the minimum inhibitory concentration in the assay with clindamycin is < 0.125 µg/mL; with linezolid it was 2 µg/mL; with tigecycline, 0.06 µg/mL.

As to “Clostridioides difficile PCR ribotype 695 isolate #406 (European region: West, country: Netherlands, isolate source: Animal, ribotype: 695)”, the minimum inhibitory concentration with vancomycin is 0.5 µg/mL; in the assay with meropenem, 2 µg/mL; with rifampicin, < 0.001 µg/mL; with fidaxomicin, 0.015 µg/mL; with imipenem it was 2 µg/mL; in the assay with metronidazole it was < 0.125 µg/mL. Also, the minimum inhibitory concentration with clindamycin was < 0.125 µg/mL; with linezolid, 2 µg/mL; with tigecycline it was 0.06 µg/mL.

With “Clostridioides difficile PCR ribotype 815 isolate #271 (European region: North, country: UK, isolate source: Human, ribotype: 815)”, the minimum inhibitory concentration with vancomycin is 1 µg/mL; with meropenem, 1 µg/mL; with rifampicin, < 0.001 µg/mL; with fidaxomicin, 0.06 µg/mL; in the assay with imipenem, 2 µg/mL; with metronidazole, < 0.125 µg/mL. In addition, the minimum inhibitory concentration in the assay with clindamycin worked out at 0.5 µg/mL; with linezolid, 2 µg/mL; in the assay with tigecycline, 0.06 µg/mL.

In the case of “Clostridioides difficile PCR ribotype 815 isolate #272 (European region: East, country: Romania, isolate source: Human, ribotype: 815)”, the minimum inhibitory concentration with vancomycin is 0.5 µg/mL; in the assay with meropenem, 2 µg/mL; in the assay with rifampicin, < 0.001 µg/mL; with fidaxomicin it was 0.03 µg/mL; with imipenem, 4 µg/mL; in the assay with metronidazole, 0.25 µg/mL. The minimum inhibitory concentration in the assay with clindamycin is 0.25 µg/mL; in the assay with linezolid, 1 µg/mL; with tigecycline, < 0.03 µg/mL.

“Clostridioides difficile PCR ribotype 902 isolate #273 (European region: South, country: Spain, isolate source: Human, ribotype: 902)”: the minimum inhibitory concentration with vancomycin turned out to be 0.5 µg/mL; in the assay with meropenem, 2 µg/mL; with rifampicin, 0.002 µg/mL; in the assay with fidaxomicin, 0.015 µg/mL; in the assay with imipenem it was 4 µg/mL; with metronidazole, 0.25 µg/mL. For the same test system, the minimum inhibitory concentration in the assay with clindamycin is > 128 µg/mL; with linezolid it was 2 µg/mL; with tigecycline, 0.25 µg/mL.

Regarding “Clostridioides difficile PCR ribotype 902 isolate #274 (European region: South, country: Spain, isolate source: Human, ribotype: 902)”, the minimum inhibitory concentration in the assay with vancomycin stood at 0.5 µg/mL; with meropenem, 2 µg/mL; with rifampicin, 0.002 µg/mL; with fidaxomicin it was 0.03 µg/mL; with imipenem, 2 µg/mL; with metronidazole, 0.25 µg/mL. In addition, the minimum inhibitory concentration is > 128 µg/mL with clindamycin, 2 µg/mL with linezolid and 0.125 µg/mL with tigecycline.

In the case of “Clostridioides difficile PCR ribotype 903 isolate #275 (European region: South, country: Spain, isolate source: Human, ribotype: 903)”, the minimum inhibitory concentration was 0.5 µg/mL with vancomycin; 4 µg/mL in the assay with meropenem; 0.002 µg/mL with rifampicin; 0.06 µg/mL with fidaxomicin; 4 µg/mL with imipenem; 0.25 µg/mL with metronidazole. The minimum inhibitory concentration with clindamycin came out at 8 µg/mL; with linezolid, 2 µg/mL; in the assay with tigecycline, 0.06 µg/mL.

“Clostridioides difficile PCR ribotype 911 isolate #276 (European region: East, country: Slovakia, isolate source: Human, ribotype: 911)”: the minimum inhibitory concentration with vancomycin is 0.5 µg/mL; with meropenem, 2 µg/mL; with rifampicin, < 0.001 µg/mL; with fidaxomicin, 0.015 µg/mL; with imipenem, 8 µg/mL; with metronidazole, < 0.125 µg/mL. Moreover, the figures for the minimum inhibitory concentration with clindamycin, in the assay with linezolid and with tigecycline were 2 µg/mL, 2 µg/mL and < 0.03 µg/mL, respectively.

In the case of “Clostridioides difficile PCR ribotype 920 isolate #277 (European region: West, country: Netherlands, isolate source: Human, ribotype: 920)”, the minimum inhibitory concentration with vancomycin was 1 µg/mL; with meropenem, 4 µg/mL; with rifampicin, < 0.001 µg/mL; with fidaxomicin it was 0.06 µg/mL; with imipenem, 2 µg/mL; with metronidazole, < 0.125 µg/mL. Further, the minimum inhibitory concentration with clindamycin came out at 0.5 µg/mL; with linezolid, 2 µg/mL; with tigecycline it was 0.06 µg/mL.

As to “Clostridioides difficile PCR ribotype 927 isolate #279 (European region: South, country: Greece, isolate source: Human, ribotype: 927)”, the minimum inhibitory concentration with vancomycin is 1 µg/mL; with meropenem, 2 µg/mL; in the assay with rifampicin, < 0.001 µg/mL; with fidaxomicin it was 0.125 µg/mL; with imipenem, 4 µg/mL; with metronidazole, < 0.125 µg/mL. Besides, the minimum inhibitory concentration in the assay with clindamycin was 4 µg/mL; in the assay with linezolid, 2 µg/mL; in the assay with tigecycline, < 0.03 µg/mL.

Regarding “Clostridioides difficile PCR ribotype 928 isolate #280 (European region: East, country: Poland, isolate source: Human, ribotype: 928)”, the minimum inhibitory concentration was 0.5 µg/mL with vancomycin; 2 µg/mL with meropenem; < 0.001 µg/mL with rifampicin; 0.06 µg/mL with fidaxomicin; 4 µg/mL in the assay with imipenem; 0.25 µg/mL with metronidazole. Moreover, the minimum inhibitory concentration in the assay with clindamycin was 8 µg/mL; with linezolid it was 2 µg/mL; with tigecycline, < 0.03 µg/mL.
